{"source": "PubChem BioAssay AID1671195 – Yale University, 2021", "assay": "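Knockdowns that increase or decrease uptake of fluorescent LDL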 (primary screen)", "system": "human Huh7 hepatoma cells", "knock-down reagent": "siRNA pool against human genes, 18 nM", "duration": "about 2 to 2.5 days of knockdown, then 8 h LDL uptake", "conditions": "DiI-labelled LDL at 30 µg/ml for 8 h, in lipoprotein-deficient serum medium", "detection": "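Fluorescent LDL signal imaged in cells, scaled to the plate median, robust z-score for each replicate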", "reading the numbers": "robust z-score: higher = more LDL uptake after knockdown", "active means": "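Active when two or more replicates show a robust z-score above 2 or below -2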", "note": "The whole screen tested about 22,000 reagents; shown is a part drawn at random. About 1,510 of them (6.9%) count as active. 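Active includes knockdowns raising or lowering LDL uptake; positive z-scores mean more uptake, negative mean less.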 Reagent sequences are not shown."}
{"Gene": "CCDC174", "robust z-score, replicate 1": 0.601, "robust z-score, replicate 2": 0.743, "robust z-score, replicate 3": 0.367, "outcome": "inactive"}
{"Gene": "EPS8L1", "robust z-score, replicate 1": 0.852, "robust z-score, replicate 2": 0.707, "robust z-score, replicate 3": -0.486, "outcome": "inactive"}
{"Gene": "GSDMA", "robust z-score, replicate 1": -2.08, "robust z-score, replicate 2": -1.98, "robust z-score, replicate 3": -1.99, "outcome": "active"}
{"Gene": "RAB18", "robust z-score, replicate 1": 1.73, "robust z-score, replicate 2": 0.456, "robust z-score, replicate 3": 1.23, "outcome": "inactive"}
{"Gene": "PAX6-AS1", "robust z-score, replicate 1": 1.07, "robust z-score, replicate 2": 1.73, "robust z-score, replicate 3": 1.06, "outcome": "inactive"}
{"Gene": "CTBS", "robust z-score, replicate 1": -0.198, "robust z-score, replicate 2": -0.578, "robust z-score, replicate 3": -0.602, "outcome": "inactive"}
{"Gene": "ALDH1B1", "robust z-score, replicate 1": 0.421, "robust z-score, replicate 2": 0.238, "robust z-score, replicate 3": 0.129, "outcome": "inactive"}
{"Gene": "TBC1D20", "robust z-score, replicate 1": 0.917, "robust z-score, replicate 2": 0.0353, "robust z-score, replicate 3": 0.627, "outcome": "inactive"}
{"Gene": "DDX5", "robust z-score, replicate 1": 0.201, "robust z-score, replicate 2": 0.0978, "robust z-score, replicate 3": 0.412, "outcome": "inactive"}
{"Gene": "PIN1", "robust z-score, replicate 1": 0.532, "robust z-score, replicate 2": -0.633, "robust z-score, replicate 3": 0.33, "outcome": "inactive"}
{"Gene": "TMEM132E-DT", "robust z-score, replicate 1": 1.19, "robust z-score, replicate 2": 1.34, "robust z-score, replicate 3": 0.909, "outcome": "inactive"}
{"Gene": "DHCR7", "robust z-score, replicate 1": -0.406, "robust z-score, replicate 2": 1.09, "robust z-score, replicate 3": 0.849, "outcome": "inactive"}

Reformatted: 2 of the entries above.
Gene,"robust z-score, replicate 1","robust z-score, replicate 2","robust z-score, replicate 3",outcome
PAX6-AS1,1.07,1.73,1.06,inactive
CTBS,-0.198,-0.578,-0.602,inactive
